No constants are given. Whether binding was seen depends on the method and setting. Binding seen in cells or lysates may run through a third protein. Some binding calls cover weakened binding; strength is not graded here.
Assays:
[1] = target: Soluble recombinant human leptin receptor (human) (UniProt P48357); assay: co-IP; 50 µl fresh human serum spiked with 50 or 100 ng leptin receptor and incubated for 30 min; leptin receptor immunoprecipitated; co-precipitated CRP estimated by ELISA; only the target purified
[2] = target: Soluble leptin receptor of human serum (human (endogenous in human serum)) (UniProt P48357); assay: co-IP; human serum immunoprecipitated with anti-Ob R or anti-CRP and protein A beads; SDS-PAGE and Western blot probed with anti-CRP or anti-sOb R, ECL

Chains of the proteins cited; added tags and fusions are not shown. Residues count along the entry.
UniProt P48357, residues 22-839: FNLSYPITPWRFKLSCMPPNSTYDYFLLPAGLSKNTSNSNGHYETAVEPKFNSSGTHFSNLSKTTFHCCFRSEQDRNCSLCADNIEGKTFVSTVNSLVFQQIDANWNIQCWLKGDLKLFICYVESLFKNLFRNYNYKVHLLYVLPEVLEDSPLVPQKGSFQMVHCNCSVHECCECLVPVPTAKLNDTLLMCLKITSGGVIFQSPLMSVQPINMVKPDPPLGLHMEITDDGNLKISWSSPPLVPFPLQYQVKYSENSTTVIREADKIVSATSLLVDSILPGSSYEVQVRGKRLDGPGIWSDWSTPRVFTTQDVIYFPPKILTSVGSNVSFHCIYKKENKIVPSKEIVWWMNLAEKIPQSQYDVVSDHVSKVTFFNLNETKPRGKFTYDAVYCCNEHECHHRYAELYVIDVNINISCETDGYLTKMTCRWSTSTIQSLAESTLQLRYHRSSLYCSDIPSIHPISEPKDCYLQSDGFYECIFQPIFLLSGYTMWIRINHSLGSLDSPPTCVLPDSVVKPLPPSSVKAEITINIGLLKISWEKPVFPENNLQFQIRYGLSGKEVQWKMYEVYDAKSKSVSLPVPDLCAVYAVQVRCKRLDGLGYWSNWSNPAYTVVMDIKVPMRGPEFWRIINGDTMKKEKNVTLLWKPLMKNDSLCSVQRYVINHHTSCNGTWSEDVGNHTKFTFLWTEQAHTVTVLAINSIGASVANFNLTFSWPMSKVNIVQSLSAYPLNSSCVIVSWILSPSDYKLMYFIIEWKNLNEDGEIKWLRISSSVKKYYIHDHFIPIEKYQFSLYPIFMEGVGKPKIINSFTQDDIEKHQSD

B1: C-reactive protein of human serum (protein, UniProt P02741 19-224)
chain: QTDMSRKAFVFPKESDTSYVSLKAPLTKPLKAFTVCLHFYTELSSTRGYSIFSYATKRQDNEILIFWSKDIGYSFTVGGSEILFEVPEVTVAPVHICTSWESASGIVEFWVDGKPRVRKSLKKGYTVGAEASIILGQEQDSFGGNFEGSQSLVGDIGNVNMWDFVLSPDEINTIYLGGPFSPNVLNWRALKYEVQGEVFTKPQLWP
[1]
  binding: binds
[2]
  binding: binds

From article PMC5992430
